These are literature values, as cited in patent publication US5424185A, “Human high-affinity neurotransmitter uptake system” (Baylor College of Medicine, priority 1990, dated 1995).

Series [1] relates to Cultured Astrocytes (rat). The following applies: read-out: Representative IC50, Cultured Astrocytes (rat); literature values; cited from earlier work.
Series [2] deals with Rat Synaptosomes (Purified). The following applies: read-out: Representative IC50, Rat Synaptosomes (Purified); literature value; cited from earlier work.
The test system of series [3] is Rat Synaptosomes. As to conditions: literature values; read-out: Representative IC50, Rat Synaptosomes; cited from earlier work.

Consider `CNCCC(Oc1ccc(C(F)(F)F)cc1)c1ccccc1` (stereo not shown) [Fluoxetine, fluoxetine], for which the IC50 (in general, the concentration that gives 50% inhibition) in series [1] was 0.023 µM; in series [2], 0.29 µM.

Turning to `CN1CCN2c3ccccc3Cc3ccccc3C2C1` (stereo not shown) [Mianserin, mianserin], the IC50 is 4.9 µM in series [1] and 8 µM in series [3].
